Results are given in words; binding and its absence hold for the method and conditions named. In cells and extracts the contact can be indirect. A result given as binding can be weak or reduced; the word gives no strength. Where a sequence is shown, tags or fusion partners need not be part of it.
Target: T1, Flag-API5 (apoptosis inhibitor 5) (Gallus (chicken)) (UniProt Q5ZMW3)
T1 sequence: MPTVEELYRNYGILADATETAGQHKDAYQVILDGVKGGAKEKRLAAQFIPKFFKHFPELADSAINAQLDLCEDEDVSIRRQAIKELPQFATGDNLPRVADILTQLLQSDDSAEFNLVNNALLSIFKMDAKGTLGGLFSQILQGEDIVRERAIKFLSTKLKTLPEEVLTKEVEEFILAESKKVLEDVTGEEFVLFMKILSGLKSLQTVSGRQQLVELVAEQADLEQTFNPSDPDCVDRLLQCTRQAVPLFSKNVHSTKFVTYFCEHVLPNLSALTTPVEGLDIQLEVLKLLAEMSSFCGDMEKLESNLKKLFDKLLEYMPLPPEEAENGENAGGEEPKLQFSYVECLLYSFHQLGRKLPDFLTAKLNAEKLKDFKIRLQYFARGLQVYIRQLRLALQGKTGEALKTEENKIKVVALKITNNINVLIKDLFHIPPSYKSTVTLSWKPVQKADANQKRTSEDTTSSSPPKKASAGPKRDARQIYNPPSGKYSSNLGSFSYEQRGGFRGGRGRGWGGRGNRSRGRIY
Experiment: co-IP; HEK293T cells cotransfected for 48 h, lysed in NP-40 buffer; precipitated with anti-Flag, anti-Myc or anti-GFP mouse MAb and protein A/G agarose at 4°C; Western blot

Substance | binding
Myc-VP3ΔCC1 (infectious bursal disease virus (IBDV)) (domain or fragment) | binds
Myc-VP3ΔCC2 (infectious bursal disease virus (IBDV)) (domain or fragment) | binds

— PMC8406308
